Results taken from patent publication US20060067886A1, “Gastrin receptor-avid peptide conjugates” (priority 1997, published 2006).

Amino acid sequences for entries named in this document (tags omitted). A change or cut given only in a name is not applied to a line headed by its entry.
UniProt P30550: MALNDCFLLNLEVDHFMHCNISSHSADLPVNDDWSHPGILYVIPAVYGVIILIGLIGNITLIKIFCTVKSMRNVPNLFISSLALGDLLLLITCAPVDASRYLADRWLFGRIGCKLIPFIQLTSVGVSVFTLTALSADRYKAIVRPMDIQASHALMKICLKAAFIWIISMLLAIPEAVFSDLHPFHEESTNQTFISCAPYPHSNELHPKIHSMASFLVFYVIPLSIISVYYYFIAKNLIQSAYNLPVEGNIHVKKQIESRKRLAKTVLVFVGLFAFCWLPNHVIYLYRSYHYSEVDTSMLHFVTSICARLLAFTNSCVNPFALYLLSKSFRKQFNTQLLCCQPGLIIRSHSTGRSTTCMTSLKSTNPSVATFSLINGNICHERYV

Assays:
in vivo [1] = conditions: SCID, mouse, iv, 4 uCi, total radioactivity; for tissue uptake dose at 72 h: Avg % ID; for tissue uptake at 0.25 h: 15 min
Procedure: In vivo pharmacokinetic studies in human tumor bearing SCID mice. […] The xenograft models were produced by bilateral flank inoculation of 5×10^6 cells (PC-3 or MDA-MB-231 cells) per site. Four to six weeks post inoculation, palpable tumors were observed. At this point, the mice were injected with 4 μCi of the complex in […] of isotonic saline via the tail vein. The mice were euthanized and tissues and organs were excised from the animals at selected times post-injection (p.i.), including 15 minutes, 30 minutes, 1 hour, 4 hours, 24 hours, 48 hours, and 72 hours p.i. Subsequently, the tissues and organs were weighed and counted in a NaI well counter and the percent injected dose (% ID) and % ID/g of each organ or tissue calculated.
The mice were injected with 4 μCi of the complex in 100 μL of isotonic saline via the tail vein. The mice were euthanized by cervical dislocation. Tissues and organs were excised from the animals following at 1 hour, 4 hour, and 24 hours post-injection (p.i.). Subsequently, the tissues and organs were weighed and counted in a NaI well counter and the percent injected dose (% ID) and % ID/g of each organ or tissue calculated.

in vivo [2] = conditions: SCID, mouse, iv, 4 uCi, total radioactivity
[3] = target: GRP receptor, human breast carcinoma T47D cells (Homo sapiens, UniProt P30550); experiment: biochemical
[4] = Biodistribution of radiometal-DOTA-BBN conjugates in CF1 normal mice

`CSCC[C@H](NC(=O)[C@H](CC(C)C)NC(=O)[C@H](Cc1cnc[nH]1)NC(=O)CNC(=O)[C@@H](NC(=O)[C@H](C)NC(=O)[C@H](Cc1c[nH]c2ccccc12)NC(=O)[C@H](CCC(N)=O)NC(=O)CCCCCCCNC(=O)CN1CCN(CC(=O)O)CCN(CC(=O)O)CCN(CC(=O)O)CC1)C(C)C)C(N)=O` [111In-DOTA-8-Aoc-BBN[7-14]NH2, metal not drawn] showed a tissue uptake dose at 72 h (in vivo [1]; Tumor) of 0.03 ± 0.01 %ID, a tissue uptake at 0.5 h (in vivo [1]; Avg % ID/gm, Blood, 30 min) of 1.46 ± 0.44 %ID/g and a tissue uptake at 0.25 h (in vivo [1]; Avg % ID/gm, S. Intestine) of 7.82 ± 2.26 %ID/g. The tissue uptake at 0.25 h (in vivo [1]; Avg % ID/gm, Tumor) was 7.59 ± 2.11 %ID/g, the tissue uptake at 24 h (in vivo [1]; Avg % ID/gm, Tumor, 24 hrs) was 1.56 ± 0.45 %ID/g and the tissue uptake at 4 h (in vivo [2]; heart) was 0.03 ± 0.05 %ID/g. The tissue uptake at 24 h (in vivo [2]; muscle) was 0.03 ± 0.05 %ID/g, the tissue uptake at 4 h (in vivo [2]; small intestine) was 1.52 ± 0.19 %ID/g and the tissue uptake at 1 h (in vivo [2]; stomach) was 1.49 ± 0.68 %ID/g. For the same compound, the IC50 [3] was 1.23 ± 0.25 nM and the tissue uptake dose at 1 h ([4]; CF-1, mouse, in vivo, iv, total radioactivity, Avg % ID, Heart, 1 hour, Blocking (excess BBN)) was 0.03 ± 0.01 %ID.

In the case of `CSCC[C@H](NC(=O)[C@H](CC(C)C)NC(=O)[C@H](Cc1cnc[nH]1)NC(=O)CNC(=O)[C@@H](NC(=O)[C@H](C)NC(=O)[C@H](Cc1c[nH]c2ccccc12)NC(=O)[C@H](CCC(N)=O)NC(=O)CCCCCCCNC(=O)CN1CCN(CC(=O)O)CCN(CC(=O)O)CCN(CC(=O)O)CC1)C(C)C)C(N)=O` [90Y-DOTA-8-Aoc-BBN[7-14]NH2, metal not drawn], the tissue uptake dose at 72 h (in vivo [1]; Heart) is reported as 0.04 ± 0.04 %ID.

Work on `CSCC[C@H](NC(=O)[C@H](CC(C)C)NC(=O)[C@H](Cc1cnc[nH]1)NC(=O)CNC(=O)[C@@H](NC(=O)[C@H](C)NC(=O)[C@H](Cc1c[nH]c2ccccc12)NC(=O)[C@H](CCC(N)=O)NC(=O)CCCCCCCNC(=O)CN1CCN(CC(=O)O)CCN(CC(=O)O)CCN(CC(=O)O)CC1)C(C)C)C(N)=O` [149Pm-DOTA-8-Aoc-BBN[7-14]NH2] [listing 1 of 2 here] yielded a tissue uptake at 1 h ([4]; CF-1, mouse, in vivo, iv, total radioactivity, Avg % ID/gm, Spleen, 1 hour post-injection) of 1.61 ± 0.36 %ID/g.

In the case of `CSCC[C@H](NC(=O)[C@H](CC(C)C)NC(=O)[C@H](Cc1cnc[nH]1)NC(=O)CNC(=O)[C@@H](NC(=O)[C@H](C)NC(=O)[C@H](Cc1c[nH]c2ccccc12)NC(=O)[C@H](CCC(N)=O)NC(=O)CCCCCCCNC(=O)CN1CCN(CC(=O)O)CCN(CC(=O)O)CCN(CC(=O)O)CC1)C(C)C)C(N)=O` [149Pm-DOTA-8-Aoc-BBN[7-14]NH2] [listing 2 of 2 here], the “Avg % ID, Liver” value ([4]; 1 hour post-injection) is reported as 0.35 ± 0.20 % ID.
